Structures can show the parent of a compound that is named as a salt. The source gives many values for each of these; only a part stands here.
Test: Solubility in lipid solvents and solvent mixtures in ambient conditions
Type: physicochemical
Settings: in Miglyol 810, ambient conditions
Description: Solubility of ABT-263 parent (free base, crystalline Form I) and ABT-263 bis-HCl salt was tested in a variety of lipid solvents and solvent mixtures in ambient conditions. Trademarked solvents in this study, unless identified hereinabove, are as follows (substantially equivalent products from other manufacturers can be substituted if available): • Miglyol 810™ of Sasol: caprylic/capric triglycerides; • Capmul MCM™ of Abitec: glyceryl caprylate/caprate; • Captex 300™ of Abitec: caprylic/capric triglycerides; • Labrafil M 2125 CS™ of Gattefossé: polyoxyethylene glyceryl linoleate; • Tween 20™ of Uniqema: polysorbate 20; • Labrasol™ of Gattefossé: polyoxyethylene glyceryl caprylate/caprate; • Cremophor RH40™: polyoxyethyene (40) hydrogenated castor oil. “PE-91” is Phosal 53 MCT™+ethanol, 9:1 by volume. “LOT-343” is Labrafil M 1944 CS™+oleic acid+Tween 80™, 30:40:30 by weight.
In some cases, indicated in Table 4 by an asterisk (*), solubility was initially high but precipitation occurred upon standing.

With CC1(C)CCC(c2ccc(Cl)cc2)=C(CN2CCN(c3ccc(C(=O)NS(=O)(=O)c4ccc(N[C@H](CCN5CCOCC5)CSc5ccccc5)c(S(=O)(=O)C(F)(F)F)c4)cc3)CC2)C1 [ABT-263] as the compound, how does the Solubility (listed as Parent (Form I)) read?
Its Solubility is <76 mg/g.

Which Solubility (listed as bis-HCl salt) does the source give for CC1(C)CCC(c2ccc(Cl)cc2)=C(CN2CCN(c3ccc(C(=O)NS(=O)(=O)c4ccc(N[C@H](CCN5CCOCC5)CSc5ccccc5)c(S(=O)(=O)C(F)(F)F)c4)cc3)CC2)C1 [ABT-263 bis-HCl] here?
Its Solubility is <84 mg/g.
